Consider two molecules from WO2013011062A2.

No constants are given. Whether binding was seen depends on the method and setting. Binding can be weak; no strength is given.

The target in the assay is recombinant extracellular domain of human OSCAR (OSCAR-ECD) (human). Kind of assay: SPR competition: OSCAR-ECD premixed with mAb over immobilized collagen I and II.

B1: anti-OSCAR mAb 16F56A2 (antibody, V domains shown)
VH: QVQLVQSGAEVKKPGSSVKVSCKASGGTFSNYAISWVRQAPGQGLEWMGRIIPILGIAHNAQKFQDRVTITADKSTSTAYMELSSLRSEDTAVYYCASPSSGKGLPYWFFDLWGRGTLVTVSS
VL: DIQMTQSPSFLSASVGDRVTITCRASQSISSYLNWYQQKPGKAPKLLIYAASSLQSGVPSRFSGSGSGTDFTLTISSLQPEDFATYYCQCGYSTPLTFGGGTKVEIKR
In the case of B1, the binding entry is on record as “binds”.

B2: anti-OSCAR mAb 6F6B (antibody, V domains shown)
VH: EVQLQQSGAELVKPGASVKLSCTASGFNIKDTYVHWVKQRPDQGLEWIGRIDPAIGNTKYDPKFRGKATITADSSSNTAYLQLSSLTSEDTAVYYCARLSYGNYGLDYSMDYWGQGTSVTVSS
VL: DIVLTQSPATLSVTPGDSVSLSCRASQSITNNLHWYQQKSHESPRLLIKYASQSISGIPSRFRGSGSGTDFTLSINSVETEDFGVYFCQQSNTWPRTFGGGTKLEIKR
Take B2: the binding entry is “binds”.
